PubChem BioAssay AID743454 – Peter MacCallum Cancer Centre | 2014
Screen: 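Knock-downs lowering viability or raising caspase 3/7 activity in vorinostat-treated resistant cells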 (primary screen). Cells: human HCT116-VR colon cancer cells, selected for vorinostat resistance. Knock-down reagent: siRNA pool against human genes, 40 nM siRNA pool. Duration: vorinostat for 24 h, read-out about 72 h after transfection. Challenge: vorinostat at 2.5 µM final. Measured: 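Two measures, CellTiter-Fluor viability and luminescent caspase 3/7 activity, each as fold change against same-plate mock wells, mean of duplicates, then screen-wide robust z-score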. Scale: viability robust z-score: higher = more viable cells than screen typical; caspase robust z-score: higher = more caspase 3/7 activity than screen typical. Call rule: 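Hits are knock-downs in viability class RV1/RV2 or caspase class CA1/CA2, excluding ones that killed cells in the no-drug cell-count arm; hits then retested with single siRNAs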.
The whole screen tested about 18,000 reagents; this is a random part of them. Over the whole deposit, 450 (2.5%) got an active call. 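Single biological run; no consistent viability z cut-off exists, so the class columns, not z-scores, define the calls.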 Unmarked entries are inactive.

{"gene knocked down":"C1orf116","viability hit class":"no change","caspase hit class":"no change","viability robust z-score":-0.61,"caspase robust z-score":0.4}
{"gene knocked down":"PAK5","viability hit class":"no change","caspase hit class":"no change","viability robust z-score":-0.44,"caspase robust z-score":1.12}
{"gene knocked down":"TMSB4Y","viability hit class":"no change","caspase hit class":"no change","viability robust z-score":-1.86,"caspase robust z-score":-0.3}
{"gene knocked down":"KCNJ9","viability hit class":"no change","caspase hit class":"no change","viability robust z-score":-0.62,"caspase robust z-score":4.07}
{"gene knocked down":"AGPS","viability hit class":"no change","caspase hit class":"no change","viability robust z-score":-1.25,"caspase robust z-score":-0.06}
{"gene knocked down":"CAV2","viability hit class":"no change","caspase hit class":"no change","viability robust z-score":-0.42,"caspase robust z-score":1.42}
{"gene knocked down":"RFESD","viability hit class":"no change","caspase hit class":"no change","viability robust z-score":1.44,"caspase robust z-score":0.32}
{"gene knocked down":"AKAP19","viability hit class":"no change","caspase hit class":"no change","viability robust z-score":0.58,"caspase robust z-score":0.24}
{"gene knocked down":"PRKAR2A","viability hit class":"no change","caspase hit class":"no change","viability robust z-score":0.42,"caspase robust z-score":2.08}
{"gene knocked down":"USE1","viability hit class":"no change","caspase hit class":"no change","viability robust z-score":-0.76,"caspase robust z-score":-1.21}
{"gene knocked down":"SRD5A3","viability hit class":"no change","caspase hit class":"no change","viability robust z-score":-0.19,"caspase robust z-score":0.4}
{"gene knocked down":"EML2","viability hit class":"no change","caspase hit class":"no change","viability robust z-score":1.2,"caspase robust z-score":-0.8}
{"gene knocked down":"ZKSCAN5","viability hit class":"no change","caspase hit class":"no change","viability robust z-score":-0.86,"caspase robust z-score":0.86}
{"gene knocked down":"DISC1","viability hit class":"no change","caspase hit class":"no change","viability robust z-score":-0.82,"caspase robust z-score":0.32}

2 entries from above, limited to “caspase hit class”.
EML2	no change
ZKSCAN5	no change
